Measurements reported in PubChem BioAssay AID602196 (INSERM, 2012)

Test: 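Knock-downs that protect lung cancer cells from cisplatin or sensitise them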
Cell system: human A549 lung cancer cells
Knock-down reagent: siRNA pair against human genes
Timing: 48 h transfection before cisplatin; time from cisplatin to read-out not stated
Conditions: cisplatin at a dose killing half of control-siRNA cells; exact dose and duration not given
Detection: 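Cisplatin cell death as a shift from the 50% death seen with control siRNA; siRNAs toxic or growth-blocking alone scored 0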
Direction: two-siRNA summed score (-2 to +2): higher = both siRNAs protect from cisplatin killing; -2 means both sensitise; mean protection from cisplatin (shift in death) and protection from cisplatin (shift in death), siRNA C and protection from cisplatin (shift in death), siRNA D: higher = protection from cisplatin killing
Active means: 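Each siRNA scores 0 if harmful alone by LDH or WST-1, otherwise +1 if it reduces and -1 if it increases cisplatin killing; a gene is active when both siRNAs agree (sum +2 or -2)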
Calls: active = both siRNAs shift cisplatin killing the same way; inactive = no consistent shift, or siRNA harmful alone
The whole screen tested about 23,000 reagents; shown is an unselected part. Of all reagents, 455 (2%) got an active call. 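Active includes both protection and sensitisation; some change values fall well beyond the stated -50 to +50 range.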 Unmarked entries are inactive. Reagents against one gene are numbered here. No sequences are given here. The record does not give: the amount of reagent.

gene	reagent no.	two-siRNA summed score (-2 to +2)	mean protection from cisplatin (shift in death) (%)	protection from cisplatin (shift in death), siRNA C (%)	protection from cisplatin (shift in death), siRNA D (%)
USP12	1	1	13.4	9.3	17.6
UTP18	1	0	-4.2	-10.7	2.3
USP27X-DT	1	0	5	0.9	9.1
SHROOM4	1	0	3.4	-6.8	13.6
LOC442575	1	0	9.2	13.6	4.7
KIAA1545	1	0	13.5	16.5	10.5
LOC402142	1	1	12.7	0.2	25.2
TDRD10	1	0	1.3	0.4	2.2
EIF5A	1	1	8.9	7.1	10.7
LOC163233	1	0	16.4	8.3	24.5
APTX	1	0	-4.7	-6.9	-2.6
BCAT1	1	-1	-6.4	-8	-4.7
PHPT1	1	-1	-6.7	27.4	-40.7
PTPRS	1	1	16.3	11.9	20.8
KRTAP23-1	1	1	13.2	15.7	10.7
CHAD	1	0	3.1	2.3	3.9
LOC442605	1	1	11.6	10.1	13.2
MAGEA1	1	0	13.3	10.6	16
CMTM2	1	0	-2	-9.1	5.1
LOC442705	1	0	-0.8	-4.9	3.2
TCIM	1	1	6.3	13	-0.4
LOC340204	1	0	2.8	-5.1	10.8

Quoted from above for reference:
gene	reagent no.	two-siRNA summed score (-2 to +2)	mean protection from cisplatin (shift in death) (%)	protection from cisplatin (shift in death), siRNA C (%)	protection from cisplatin (shift in death), siRNA D (%)
KIAA1545	1	0	13.5	16.5	10.5
LOC402142	1	1	12.7	0.2	25.2
TDRD10	1	0	1.3	0.4	2.2
EIF5A	1	1	8.9	7.1	10.7
LOC163233	1	0	16.4	8.3	24.5
APTX	1	0	-4.7	-6.9	-2.6
BCAT1	1	-1	-6.4	-8	-4.7
PHPT1	1	-1	-6.7	27.4	-40.7

More entries:
gene	reagent no.	two-siRNA summed score (-2 to +2)	mean protection from cisplatin (shift in death) (%)	protection from cisplatin (shift in death), siRNA C (%)	protection from cisplatin (shift in death), siRNA D (%)
EMC3-AS1	1	0	5.7	11.8	-0.4
CILP2	1	0	10.9	4.9	16.9
STAG3L1	1	0	7.3	-0.2	14.9
ANO3	1	0	-7.4	-1.7	-13
SLC36A1	1	1	12.7	11	14.5
UTRN	1	1	13.9	-6.5	34.3
HUWE1	1	0	-6.7	-19.9	6.5
EIF2AK2	1	1	5.4	-9.4	20.1
ADGRE3	1	1	6.7	11.2	2.2
IGFBP2	1	0	13.8	12.4	15.1
LOC389630	1	0	10.7	13.1	8.3
LOC441235	1	0	4.6	1.2	8.1
GLRA2	1	-1	-9.6	2.1	-21.3
DLC1	1	0	-5.3	-8.8	-1.7
OAZ1	1	0	-1.8	0.2	-3.7
CASKIN2	1	0	-4.8	-10.1	0.4
GIN1	1	0	11.9	7.1	16.8
ADAMTSL2	1	0	3.2	15.6	-9.2
LOC440389	1	0	5.4	15.2	-4.4
SLC23A2	1	0	7.5	-3.4	18.5
SPAM1	1	0	-1.7	-1.3	-2
LOC285321	1	1	13.3	15.8	10.7
MYOC	1	0	-3.1	-0.7	-5.5
TNFRSF13B	1	0	3.2	8.7	-2.3
RALBP1	1	1	10.9	5.6	16.1
HS3ST3A1	1	0	9.2	5.6	12.8
MBTD1	1	0	7.9	4.6	11.1
TMEM185A	1	0	3.2	7.5	-1.1
MRPL48	1	0	9	-4.7	22.7
VRK3	1	0	3.5	7.4	-0.3
LOC440187	1	0	3.4	7.3	-0.4
PRSS8	1	-1	-33.6	-63.3	-4
KMT2D	1	0	-5.8	-19.1	7.5
LRRN4CL	1	0	-8.8	-10.7	-7
KATNAL1	1	0	1.4	-3.9	6.7
KATNAL1	2	0	5.4	2.2	8.5
